Results reported in publication doi:10.1101/2025.02.07.636106.
No constants are given. Whether binding was seen depends on the method and setting. For some of these results: In cells and extracts the contact can be indirect. Some results given as binding are weak or reduced against the parent protein; the word gives no strength. For some of these results: Where a sequence is shown, tags or fusion partners need not be part of it.

By UniProt entry, the sequences of proteins in these tests, tags left out.
UniProt Q15836: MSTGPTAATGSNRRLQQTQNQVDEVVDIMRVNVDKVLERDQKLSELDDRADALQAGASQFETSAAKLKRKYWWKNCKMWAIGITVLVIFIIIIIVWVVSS

T1: ATP11B (human (endogenous in HEK293 and in H9-derived iNeurons)) (UniProt Q9Y2G3)
T1 sequence: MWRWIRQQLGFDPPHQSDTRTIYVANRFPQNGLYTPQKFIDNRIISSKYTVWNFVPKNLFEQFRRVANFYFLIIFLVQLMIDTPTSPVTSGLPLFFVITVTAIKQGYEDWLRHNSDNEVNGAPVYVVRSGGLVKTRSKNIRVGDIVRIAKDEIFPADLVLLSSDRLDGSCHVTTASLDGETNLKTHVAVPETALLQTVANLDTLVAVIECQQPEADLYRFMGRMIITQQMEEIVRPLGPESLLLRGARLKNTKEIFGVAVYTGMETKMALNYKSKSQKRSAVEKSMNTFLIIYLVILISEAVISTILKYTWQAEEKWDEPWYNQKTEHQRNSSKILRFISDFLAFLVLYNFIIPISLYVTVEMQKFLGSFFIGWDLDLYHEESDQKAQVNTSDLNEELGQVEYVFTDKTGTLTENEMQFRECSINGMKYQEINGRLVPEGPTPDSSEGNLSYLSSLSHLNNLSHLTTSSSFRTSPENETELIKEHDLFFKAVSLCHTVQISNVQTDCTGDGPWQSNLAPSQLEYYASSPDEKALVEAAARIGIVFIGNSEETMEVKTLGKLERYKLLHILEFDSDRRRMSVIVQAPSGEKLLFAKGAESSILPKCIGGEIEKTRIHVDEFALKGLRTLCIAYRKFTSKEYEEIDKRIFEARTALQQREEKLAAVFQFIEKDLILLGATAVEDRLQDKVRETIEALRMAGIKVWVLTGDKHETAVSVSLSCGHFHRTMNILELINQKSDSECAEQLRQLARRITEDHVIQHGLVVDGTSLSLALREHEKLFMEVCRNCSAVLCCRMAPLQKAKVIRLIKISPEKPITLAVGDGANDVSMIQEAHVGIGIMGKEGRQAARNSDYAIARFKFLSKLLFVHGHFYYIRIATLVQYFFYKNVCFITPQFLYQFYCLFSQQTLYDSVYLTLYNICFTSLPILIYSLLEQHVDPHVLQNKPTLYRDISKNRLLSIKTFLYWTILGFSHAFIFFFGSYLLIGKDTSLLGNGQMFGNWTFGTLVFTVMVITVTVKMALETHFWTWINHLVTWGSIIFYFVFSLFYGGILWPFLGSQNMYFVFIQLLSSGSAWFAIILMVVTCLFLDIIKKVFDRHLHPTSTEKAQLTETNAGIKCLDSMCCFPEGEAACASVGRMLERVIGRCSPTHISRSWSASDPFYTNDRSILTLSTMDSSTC

T2: 3xFlag-ATP11B (human) (UniProt Q9Y2G3)
T2 sequence: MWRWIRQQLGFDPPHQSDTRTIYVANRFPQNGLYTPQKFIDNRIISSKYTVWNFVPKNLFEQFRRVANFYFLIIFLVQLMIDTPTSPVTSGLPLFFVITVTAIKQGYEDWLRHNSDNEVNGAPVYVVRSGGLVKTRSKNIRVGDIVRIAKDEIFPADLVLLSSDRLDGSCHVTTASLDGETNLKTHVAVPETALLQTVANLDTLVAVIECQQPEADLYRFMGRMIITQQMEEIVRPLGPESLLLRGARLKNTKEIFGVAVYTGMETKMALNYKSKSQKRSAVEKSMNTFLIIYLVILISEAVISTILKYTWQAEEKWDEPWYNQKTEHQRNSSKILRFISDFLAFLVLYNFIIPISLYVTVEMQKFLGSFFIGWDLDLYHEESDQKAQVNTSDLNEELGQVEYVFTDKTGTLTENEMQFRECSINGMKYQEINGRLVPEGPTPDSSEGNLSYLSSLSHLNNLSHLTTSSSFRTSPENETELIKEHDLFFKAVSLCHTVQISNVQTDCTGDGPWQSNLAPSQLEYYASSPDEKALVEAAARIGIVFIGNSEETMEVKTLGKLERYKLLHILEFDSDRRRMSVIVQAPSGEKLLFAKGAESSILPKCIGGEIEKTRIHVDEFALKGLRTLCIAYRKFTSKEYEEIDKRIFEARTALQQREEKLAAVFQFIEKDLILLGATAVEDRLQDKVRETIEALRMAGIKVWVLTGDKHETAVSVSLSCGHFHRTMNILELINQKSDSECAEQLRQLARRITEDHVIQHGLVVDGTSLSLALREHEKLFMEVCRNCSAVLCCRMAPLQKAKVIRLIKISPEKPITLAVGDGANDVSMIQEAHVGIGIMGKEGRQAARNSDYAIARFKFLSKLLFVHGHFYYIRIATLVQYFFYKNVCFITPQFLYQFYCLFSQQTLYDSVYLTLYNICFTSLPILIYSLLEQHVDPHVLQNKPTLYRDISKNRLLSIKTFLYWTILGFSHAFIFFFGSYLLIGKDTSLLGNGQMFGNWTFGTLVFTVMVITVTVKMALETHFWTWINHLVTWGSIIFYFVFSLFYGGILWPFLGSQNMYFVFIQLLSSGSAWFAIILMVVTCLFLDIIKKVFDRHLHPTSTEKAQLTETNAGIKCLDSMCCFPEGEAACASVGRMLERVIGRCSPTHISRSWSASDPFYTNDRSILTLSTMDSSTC

T3: 3xHA-TMEM230 (human) (UniProt Q96A57)
T3 sequence: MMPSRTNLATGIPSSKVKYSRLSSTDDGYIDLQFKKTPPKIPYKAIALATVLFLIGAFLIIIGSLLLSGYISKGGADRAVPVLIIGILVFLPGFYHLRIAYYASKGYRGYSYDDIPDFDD

T4: 3xHA-TMEM230 triple mutant (Y29C, R78L, X121W) (human) (UniProt Q96A57)
T4 sequence: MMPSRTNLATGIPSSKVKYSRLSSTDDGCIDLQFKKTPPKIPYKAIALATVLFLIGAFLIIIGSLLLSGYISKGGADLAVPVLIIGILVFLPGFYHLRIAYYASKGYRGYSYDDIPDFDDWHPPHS

T5: VAMP8 (human (endogenous in HEK293)) (UniProt Q9BV40)
T5 sequence: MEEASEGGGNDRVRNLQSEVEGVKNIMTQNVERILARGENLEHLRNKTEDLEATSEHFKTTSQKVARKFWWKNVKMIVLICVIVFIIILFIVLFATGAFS

T6: STX8 (human (endogenous in HEK293)) (UniProt Q9UNK0)
T6 sequence: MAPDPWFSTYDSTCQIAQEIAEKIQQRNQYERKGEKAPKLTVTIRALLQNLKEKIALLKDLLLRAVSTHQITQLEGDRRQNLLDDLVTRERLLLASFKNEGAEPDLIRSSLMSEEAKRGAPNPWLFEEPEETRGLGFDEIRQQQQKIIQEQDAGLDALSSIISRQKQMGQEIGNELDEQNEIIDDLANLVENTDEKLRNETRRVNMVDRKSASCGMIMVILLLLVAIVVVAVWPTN


Tests used:
[1] = molecular target: T1, ATP11B (human (endogenous in HEK293 and in H9-derived iNeurons)); test: native gel or EMSA; BN-MS: endosomal pellets (Endo-IP, HEK293EL) extracted with 0.5% DDM in KPBS, 4-16% NativePAGE at 4°C, 48 slices, DIA-MS; co-migration of elution profiles
3xFlag-ATP11B (human) = molecular target: T2, 3xFlag-ATP11B (human); test: co-IP; HEK293 cells transfected for 48 h; extraction with 0.5% DDM, 25 mM HEPES pH 7.4, 150 mM NaCl; anti-HA or anti-Flag magnetic beads, 2 h, 4°C; immunoblot
3xHA-TMEM230 (human) = molecular target: T3, 3xHA-TMEM230 (human); test: as above
[2] = molecular target: T4, 3xHA-TMEM230 triple mutant (Y29C, R78L, X121W) (human); test: as above
[3] = molecular target: T5, VAMP8 (human (endogenous in HEK293)); test: cross-linking; XL-MS: intact early endosomes purified by Endo-IP (FLAG-EEA1, HEK293EL, eluted without detergent) in KPBS, 1 mM DSSO, room temperature, 40 min; XlinkX, 5% FDR
[4] = molecular target: VAMP3 (human (endogenous in HEK293)) (UniProt Q15836); test: as above
[5] = molecular target: T6, STX8 (human (endogenous in HEK293)); test: as above

Row | binding (3xFlag-ATP11B (human)) | binding (3xHA-TMEM230 (human)) | binding [2] | Binder | further results
1 | – | – | – | TMEM30A (protein, UniProt Q9NV96 1-361) MAMNYNAKDEVDGGPPCAPGGTAKTRRPDNTAFKQQRLPAWQPILTAGTVLPIFFIIGLIFIPIGIGIFVTSNNIREIEIDYTGTEPSSPCNKCLSPDVTPCFCTINFTLEKSFEGNVFMYYGLSNFYQNHRRYVKSRDDSQLNGDSSALLNPSKECEPYRRNEDKPIAPCGAIANSMFNDTLELFLIGNDSYPIPIALKKKGIAWWTDKNVKFRNPPGGDNLEERFKGTTKPVNWLKPVYMLDSDPDNNGFINEDFIVWMRTAALPTFRKLYRLIERKSDLHPTLPAGRYSLNVTYNYPVHYFDGRKRMILSTISWMGGKNPFLGIAYIAVGSISFLLGVVLLVINHKYRNSSNTADITI | binding [1]: binds
2 | binds | binds | no binding | TMEM30A-V5 (protein, UniProt Q9NV96 1-361) MAMNYNAKDEVDGGPPCAPGGTAKTRRPDNTAFKQQRLPAWQPILTAGTVLPIFFIIGLIFIPIGIGIFVTSNNIREIEIDYTGTEPSSPCNKCLSPDVTPCFCTINFTLEKSFEGNVFMYYGLSNFYQNHRRYVKSRDDSQLNGDSSALLNPSKECEPYRRNEDKPIAPCGAIANSMFNDTLELFLIGNDSYPIPIALKKKGIAWWTDKNVKFRNPPGGDNLEERFKGTTKPVNWLKPVYMLDSDPDNNGFINEDFIVWMRTAALPTFRKLYRLIERKSDLHPTLPAGRYSLNVTYNYPVHYFDGRKRMILSTISWMGGKNPFLGIAYIAVGSISFLLGVVLLVINHKYRNSSNTADITI | –
3 | – | binds | no binding | 3xFlag-ATP11B (protein, UniProt Q9Y2G3 1-1177) MWRWIRQQLGFDPPHQSDTRTIYVANRFPQNGLYTPQKFIDNRIISSKYTVWNFVPKNLFEQFRRVANFYFLIIFLVQLMIDTPTSPVTSGLPLFFVITVTAIKQGYEDWLRHNSDNEVNGAPVYVVRSGGLVKTRSKNIRVGDIVRIAKDEIFPADLVLLSSDRLDGSCHVTTASLDGETNLKTHVAVPETALLQTVANLDTLVAVIECQQPEADLYRFMGRMIITQQMEEIVRPLGPESLLLRGARLKNTKEIFGVAVYTGMETKMALNYKSKSQKRSAVEKSMNTFLIIYLVILISEAVISTILKYTWQAEEKWDEPWYNQKTEHQRNSSKILRFISDFLAFLVLYNFIIPISLYVTVEMQKFLGSFFIGWDLDLYHEESDQKAQVNTSDLNEELGQVEYVFTDKTGTLTENEMQFRECSINGMKYQEINGRLVPEGPTPDSSEGNLSYLSSLSHLNNLSHLTTSSSFRTSPENETELIKEHDLFFKAVSLCHTVQISNVQTDCTGDGPWQSNLAPSQLEYYASSPDEKALVEAAARIGIVFIGNSEETMEVKTLGKLERYKLLHILEFDSDRRRMSVIVQAPSGEKLLFAKGAESSILPKCIGGEIEKTRIHVDEFALKGLRTLCIAYRKFTSKEYEEIDKRIFEARTALQQREEKLAAVFQFIEKDLILLGATAVEDRLQDKVRETIEALRMAGIKVWVLTGDKHETAVSVSLSCGHFHRTMNILELINQKSDSECAEQLRQLARRITEDHVIQHGLVVDGTSLSLALREHEKLFMEVCRNCSAVLCCRMAPLQKAKVIRLIKISPEKPITLAVGDGANDVSMIQEAHVGIGIMGKEGRQAARNSDYAIARFKFLSKLLFVHGHFYYIRIATLVQYFFYKNVCFITPQFLYQFYCLFSQQTLYDSVYLTLYNICFTSLPILIYSLLEQHVDPHVLQNKPTLYRDISKNRLLSIKTFLYWTILGFSHAFIFFFGSYLLIGKDTSLLGNGQMFGNWTFGTLVFTVMVITVTVKMALETHFWTWINHLVTWGSIIFYFVFSLFYGGILWPFLGSQNMYFVFIQLLSSGSAWFAIILMVVTCLFLDIIKKVFDRHLHPTSTEKAQLTETNAGIKCLDSMCCFPEGEAACASVGRMLERVIGRCSPTHISRSWSASDPFYTNDRSILTLSTMDSSTC | –
4 | binds | – | – | 3xHA-TMEM230 (protein, UniProt Q96A57 1-120) MMPSRTNLATGIPSSKVKYSRLSSTDDGYIDLQFKKTPPKIPYKAIALATVLFLIGAFLIIIGSLLLSGYISKGGADRAVPVLIIGILVFLPGFYHLRIAYYASKGYRGYSYDDIPDFDD | –
5 | – | – | – | PTTG1IP (protein, UniProt P53801 33-180) QEPPGAACSQNTNKTCEECLKNVSCLWCNTNKACLDYPVTSVLPPASLCKLSSARWGVCWVNFEALIITMSVVGGTLLLGIAICCCCCCRRKRSRKPDRSEEKAMREREERRIRQEERRAEMKTRHDEIRKKYGLFKEENPYARFENN | binding [3]: binds; binding [4]: binds
6 | – | – | – | VPS16 (protein, UniProt Q9H269 1-839) MDCYTANWNPLGDSAFYRKYELYSMDWDLKEELRDCLVAAAPYGGPIALLRNPWRKEKAASVRPVLDIYSASGMPLASLLWKSGPVVSLGWSAEEELLCVQEDGAVLVYGLHGDFRRHFSMGNEVLQNRVLDARIFHTEFGSGVAILTGAHRFTLSANVGDLKLRRMPEVPGLQSAPSCWTVLCQDRVAHILLAVGPDLYLLDHAACSAVTPPGLAPGVSSFLQMAVSFTYRHLALFTDTGYIWMGTASLKEKLCEFNCNIRAPPKQMVWCSRPRSKERAVVVAWERRLMVVGDAPESIQFVLDEDSYLVPELDGVRIFSRSTHEFLHEVPAASEEIFKIASMAPGALLLEAQKEYEKESQKADEYLREIQELGQLTQAVQQCIEAAGHEHQPDMQKSLLRAASFGKCFLDRFPPDSFVHMCQDLRVLNAVRDYHIGIPLTYSQYKQLTIQVLLDRLVLRRLYPLAIQICEYLRLPEVQGVSRILAHWACYKVQQKDVSDEDVARAINQKLGDTPGVSYSDIAARAYGCGRTELAIKLLEYEPRSGEQVPLLLKMKRSKLALSKAIESGDTDLVFTVLLHLKNELNRGDFFMTLRNQPMALSLYRQFCKHQELETLKDLYNQDDNHQELGSFHIRASYAAEERIEGRVAALQTAADAFYKAKNEFAAKATEDQMRLLRLQRRLEDELGGQFLDLSLHDTVTTLILGGHNKRAEQLARDFRIPDKRLWWLKLTALADLEDWEELEKFSKSKKSPIGYLPFVEICMKQHNKYEAKKYASRVGPEQKVKALLLVGDVAQAADVAIEHRNEAELSLVLSHCTGATDGATADKIQRARAQAQKK | binding [5]: binds
